In all, about 52,000 sequences went through this assay and about 210 (0.4%) were called active.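 The calls were made as follows: active = gene whose silencing raises cell survival under the drug, median off-target-corrected z-score across its silencing RNAs 2 or more; inactive = the rest.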 This is one part of the list.

The assay can be described thus: Resistance to Poly (ADP-Ribose) Polymerase inhibitor: Gene Identification via Genome-wide siRNA Screen. The settings on record: mouse BRCA2 R2336H ES cells, olaparib, CellTiter-Glo viability; hits give high values. The method, boiled down:
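Mouse BRCA2 R2336H ES cells were reverse-transfected with siRNA (20 nM final), treated at 48 h with 500 nM olaparib, and read by CellTiter-Glo after 72 h. Scores: MAD-based z per siRNA, median per gene, seed off-target correction.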
(ATP-based viability assays read luminescence as a measure of living cells.)
For CGUGAUAGAUGGAAGCUACTT against Cnbp2, the z-score is inactive: -0.343.
Consider GGAACAAGAACUUUCUAAGTT against Golph4, for which the z-score is inactive: 0.514.
Then GGAUUCAACAGAUUUAGUGTT against Clcn1, with inactive: -0.136; and GGAGCUUCUUAAUAACUUUTT against Xpo6, with inactive: 0.469; and GGCUUCAUUAUCUGUUCUGTT against Olfr1442, with inactive: -0.538.
Turning to GGACGACAAAUAGAAUUCUTT against Odf1, the z-score is inactive: 1.32.
As for CCUCUAUGACUGGUACAGGTT against Ttyh3, the z-score is inactive: 0.389.
The value for ACUAGAUUUAUCCUGCACATT against LOC434225 was inactive: 0.565; that for GGGAUUGCUAUGUGCUUAGTT against As3mt was inactive: -0.0593.
Turning to GCUGUUACCAGGUUUAAGUTT against AA589481, the z-score was inactive: 1.09.
Then CGAACUUGAGAAUCUUAGATT against AI604832, with inactive: -1.08; and GGCUCUGAACAGCAUUGACTT against Mdfi, with inactive: -3.11; and AAGGACGAUCCUGAUUUCATT against LOC432555, with inactive: 0.799.
Then “GGGUUAUGGAUUUGAAGUGTT against D930015E06Rik”, with inactive: -0.189; and GGAUCCAGGAGUAUGAGAATT against Atp5h, with inactive: -1.96.
Turning to CGGGUCCAUUAACAAAGCUTT against Bmp1, the z-score was inactive: -0.453.
The value for GCUAUCAUGAAGCUAAAUGTT against Igf2bp1 was inactive: -0.686.
On to GGCAAGAAAAACACUUUAUTT against Adprtl3, for which the z-score was inactive: 0.77.
On to GGGUGAUAUGGACUAUAGGTT against Cd1d2, for which the z-score was inactive: 0.704.
Regarding CCUCUAAAGUCCUCAAUAGTT against Myoz2, the z-score is inactive: -1.97.
As for GCUAAUUCCAAGAAAGAAGTT against Lifr, the z-score is inactive: 0.328.
For the sequence GAAGCUUUGGUGGUACUAATT against Krtap16-1, the z-score was inactive: -0.711.
Take GGGCAAAAAGUGCAUCCGGTT against Ctgf: the z-score is inactive: 1.02.
Then CCACCACAGCACCGGAUAATT against Mrgprb3, with inactive: -1.19.
Then GGCUGCAUUUUAAAACCGUTT against Prdm1, with inactive: 1.47; and GGAAAGAGACAACUACUUATT against Gpr73, with inactive: 0.0455.
CCUGUCAGGGAUGGAUUUUTT against Bhlhb2: the z-score is inactive: -0.226.
The value for GGCUAUGAGUCGACUGAUUTT against Scin was inactive: 1.01; that for “GGACUGAGGGCAAUGAAAATT against 4631426J05Rik” was inactive: 0.0855.
The value for GGAUGCUGACAACAUAUACTT against Plk3 was inactive: 0.958.
The value for GCCCUUACCUUGUAAGUUCTT against Sln was inactive: -0.502; that for “CCUUCUGUAGUUGGAAUCATT against 1110038F21Rik” was inactive: -0.558.
As to “GCCAACUUAUGUUGUACGCTT against 2610511E22Rik”, the z-score is inactive: 1.6.
Then GGACGAUCGGAAUUGGAAATT against Slc24a6, with inactive: -0.0282.
Regarding CCUGGAUUUCCGGGAGUACTT against Col4a1, the z-score is inactive: -2.1.
The value for GCAUGUCUCAACUAAGGACTT against Upk3b was inactive: -0.0927; that for GGUGAUAUGCAUGAAAAUGTT against Hn1 was inactive: 0.573.
Then GGGAACCUUGAAAUCAAUATT against Gpr75, with inactive: 0.686; and GCGCAGAUAUCCUGGUUUGTT against Dhx36, with inactive: 0.854; and CGCAUCAGUUUCUAUAAGATT against Rp1h, with inactive: 1.14.
Then GCCAACAGUAACGGUAUUGTT against Zfp278, with inactive: -1.02; and CCCAAUUCGAUUUCUGCCGTT against Rnf11, with inactive: -0.407.
Turning to CCCACCGAGACACCAUCUUTT against AI428936, the z-score is inactive: -0.606.
Then GCAGCAAGCUGAAAAAGAGTT against Cstl1, with inactive: -0.894.
Then GCUACUUCAUUCCCGUGGCTT against Slc29a1, with inactive: 0.263; and “CGUACGCAGAAAUGCCUAGTT against 1500011L16Rik”, with inactive: -0.135.
As for GGAAAAGUUUGAAACCAAATT against Pmpca, the z-score is inactive: -2.16.
Regarding GGAAGAAGAACUGAAGACATT against Ctnnbl1, the z-score was inactive: -0.341.
Then GGACAAGAGGUACACAAACTT against Eif3s7, with inactive: -2.13.
Regarding “GGCAUAGUAAUCGAGUACUTT against 2610524A10Rik”, the z-score is inactive: 0.336.
With GGAAUACAAAGAUAGCUUCTT against Atrn, the z-score is inactive: 0.197.
The value for GGUUGUGCAAGAGUAUGAATT against Nphs2 was inactive: 2.88.
The value for CCACUUUCAACCUGACCGUTT against Pcdhac2 was inactive: -0.46.
As to CGUGAUUUCAUGCUGUGGCTT against Tal2, the z-score is inactive: -1.53.
Then GACACCAAAGUCUUUGAGUTT against Olfr315, with inactive: -0.867.
The value for GCUGAUGUUAUUUAACAUGTT against Tas2r124 was inactive: 0.717; that for GUAAAUCCAUCUCUCUAGCTT against Cyp3a16 was inactive: -0.801.
The value for GGCCCAAAAACAGGUAAAGTT against Adrb1 was inactive: 2.2; that for “GAGUCACAUGUACCUGGCCTT against 9930021D14Rik” was inactive: 0.481.
GCAGAGAUUUAUGAAGCAUTT against Tbp: the z-score was inactive: -0.312.
Then GGAAUCGCUGUUAUAGUUATT against Spg4, with inactive: -0.488; and CGUAGCUUAAUCUGGCAGATT against Aldh1a7, with inactive: -1.21.
Regarding GGAGUAGCUGUUCUAAUUGTT against Scamp5, the z-score is inactive: -0.76.
Take GGACUUCAUGACCACCUAUTT against Ctsf: the z-score is inactive: -0.667.
The value for GGAUAUCAUUGUGCCCACUTT against Olfr920 was inactive: -0.375; that for GGAGAUAUCUGGUAUACCCTT against Bace2 was inactive: 0.124; that for “CUCAGGAAAUAGGCCCAGATT against A530064D06Rik” was inactive: 0.849.
With GGAACUGGAGAAGAAAUUUTT against Sp100, the z-score is inactive: 0.223.
For GCAGCUAGUAUCCAGGCUATT against Ifrd1, the z-score was inactive: 0.666.
The value for GAGAAACCUGCCUCAUCUCTT against Spata3 was inactive: -0.577; that for GCUUUGGAACCUCCGAAUGTT against Ddb2 was inactive: -0.489; that for “CCCACUUAUAUAUGUAGUUTT against 2410187C16Rik” was inactive: -0.391.
The value for GGCAGACAACGUGUCACCUTT against Aldh1a3 was inactive: -0.741.
The value for GGGUAUGAGCAUAAAAUAATT against Il16 was inactive: -0.692; that for GCAUUGAGAUGAGAGCCUATT against BC022133 was inactive: -0.954.
Regarding “GGUCUUCUAAGAAAUUUUGTT against 5430425K04Rik”, the z-score is inactive: 0.912.
Regarding GGGACUGUAAUGUUGACACTT against Olfr560, the z-score was inactive: 0.851.
The value for “GGUACGAGUGAUCGUACUUTT against 5330438I03Rik” was inactive: 0.1; that for GCAUCUAAGAAGCUGAAAATT against Mmrp19 was inactive: 2.56.
Then GCCCAAUCAAAAAAUGGUGTT against Zyx, with inactive: 0.171.
Turning to “GGAGAUUUGAGUCCUCUAGTT against B830013J05Rik”, the z-score was inactive: -0.654.
Regarding UUUUUUCUGGUUCACUUCATT against Olfr177, the z-score is inactive: -0.594.
Then GGUGUAGGAAGAAUGUUUATT against Pfdn1, with inactive: -0.127.
The value for “GUGAACAACAUCCAAGCGATT against 1110001P11Rik” was inactive: 0.931.
The value for “GCGAAUUUUUGACACCUAUTT against 9830169G11Rik” was inactive: 0.626.
Regarding GCUGUGUGACCAGCUGUUGTT against Krtap9-1, the z-score was inactive: 1.03.
The value for GGAAGACGUAAAGCUUUCUTT against Olfr1006 was inactive: 0.568; that for CCAAAGGUUACCAGGAAGCTT against Pcsk4 was inactive: -0.169.
The value for GCGAAAUCCUGGGCUACUCTT against Dyrk4 was inactive: 1.13; that for GGGAUGUCAGCAAUCUAAATT against Pmfbp1 was inactive: -0.697; that for GGAUCACUCUAAUUCAGAUTT against Fcamr was inactive: -0.191.
On to GGAUCACCAGACCUUUUUCTT against St7l, for which the z-score was inactive: -0.848.
The value for GCAAAUAAUGAGGUCCAGATT against Rbms2 was inactive: -0.236; that for “GGUAUCCUGAGUUUCAGCCTT against E230015B07Rik” was inactive: 0.933; that for “CCUACAAAAUCUUUCCCAATT against 1300013B24Rik” was inactive: -0.491.
Then “CCAGCUAUGAAUCAGAAUGTT against B230209C24Rik”, with inactive: 0.623.
CCUCAGAUUGCCAAAAGUUTT against Tnip1: the z-score is inactive: -1.02.
Turning to “GCUGAGAAUGUGGUAACAGTT against 4930521A18Rik”, the z-score was inactive: -2.22.
As for GGUCCAAGUAAUGAACUCATT against Olfr155, the z-score is inactive: -0.9.
Then AUUUUGGUGGAGGUAACUATT against Hnrpa3, with inactive: -0.899; and GGCAUGGAAGGAGGUGCUUTT against Nedl2, with inactive: 4.53; and “GGCUGACCACCAAAUUGUUTT against 2310043L02Rik”, with inactive: -3.3.
Then “GGCACACUUGUGUAAUAUUTT against D13Wsu177e”, with inactive: -1.36; and CUUCGUAGCAGUCAUCCUUTT against Bcl2, with inactive: 1.3.

The values above are taken from PubChem BioAssay AID1347423 (Functional Genomics Laboratory (NCATS/FGL), 2020).
